Data taken from PubChem BioAssay AID1347131 (National Center for Advancing Translational Sciences (NCATS), 2019).
About 2,000 (0.49%) of roughly 410,000 compounds were called active. The shares of active, inactive and inconclusive entries below differ from those in the screen. Calls come from the whole dose curve; tested in HEK293 reporter line. Where the call is inconclusive, the potency comes from a doubtful curve fit.
Potency is the fitted concentration of half-maximal effect.

Assay: qHTS Assay for Foot and Mouth Disease Virus Antivirals: Primary Screen against the MLPCN compound library; note: nearly all actives have a fitted effect of over 55% in size
Conditions: FMDV antiviral cell-based qHTS; activity, negative = inhibition: at 57.9 µM (top of the series)
With `CC(=O)CSc1nnc(-c2ccc3c(c2)OCO3)o1` the Potency was inconclusive: 39.8 µM [inhibitor, single point]. With `CCC(C)(C)n1nnnc1C(c1cc2cc(C)cc(C)c2[nH]c1=O)N1CCN(Cc2ccc3c(c2)OCO3)CC1` (stereo not drawn) the Potency was inconclusive: 5.62 µM [inhibitor, partial curve, poor fit]. For `Cc1nnc(SCC(=O)N2CCCC2)n1-c1ccc(F)cc1`, the “activity, negative = inhibition” value was inactive: -42.8%. For `COc1cc2[nH]c3c(N4CCN(c5ccccn5)CC4)ncnc3c2cc1OC`, the Potency was inconclusive: 17.8 µM [inhibitor, partial curve, poor fit]. With `O=c1cc(CSc2nnc(-c3cccs3)n2Cc2ccccc2)nc2sc3ccccc3n12` the Potency was inconclusive: 15.8 µM [inhibitor, partial curve, poor fit]. In the case of `COc1ccc(-c2cc(C(F)F)n3ncc(C(=O)n4ccnc4C)c3n2)cc1`, the Potency is reported as inconclusive: 14.1 µM [inhibitor, partial curve, poor fit]. For `O=C(Nc1ccccn1)c1ccc(-c2ccccc2)cc1`, the Potency was inconclusive: 14.1 µM [inhibitor, single point]. With `CC1CCCC(C)N1CCCNC(=O)c1ccc2c(c1)NC(=O)c1ccccc1S2` (stereo not drawn) the Potency was inconclusive: 11.2 µM [inhibitor, partial curve, poor fit]. In the case of `CSc1nc2nccc(-c3ccc(-c4ccccc4)cc3)n2n1`, the Potency is reported as inconclusive: 20 µM [inhibitor, partial curve, poor fit]. With `CC1CCCCC1NC(=O)CSc1nnc(-c2ccncc2)n1CCCN(C)C` (stereo not drawn) the Potency was inconclusive: 5.62 µM [inhibitor, partial curve]. For `FC(F)(F)c1cccc(N2CCN(c3ncnc4c3nc3n4CCCC3)CC2)c1`, the Potency was inconclusive: 20 µM [inhibitor, partial curve, poor fit]. With `Cc1ccc(Cl)cc1N1CCN(c2ncnc3c2nc2n3CCCC2)CC1` the Potency was inconclusive: 28.2 µM [inhibitor, partial curve, poor fit]. In the case of `Cc1sc2ncnc(N3CCC(C(=O)NNC(=O)COc4cccc(C(F)(F)F)c4)CC3)c2c1C`, the Potency is reported as inconclusive: 25.1 µM [inhibitor, partial curve, poor fit]. For `O=C1Nc2ccc([N+](=O)[O-])cc2OC1CCN1CCN(c2ccccc2)CC1` (stereo not drawn), the “activity, negative = inhibition” value was inactive: -30%. In the case of `COc1ccc(CC(N)c2csc(NC(=O)c3ccc(OC)cc3)n2)cc1` (stereo not drawn), the activity, negative = inhibition is reported as inconclusive: -31.3% [inhibitor]. For `Cc1ccccc1Cn1cccc(C(=O)Nc2nc3ccccc3s2)c1=O`, the Potency was inconclusive: 22.4 µM [inhibitor, partial curve, poor fit]. In the case of `NC(=O)c1ccccc1NC(=O)CN1CCN(Cc2ccc(Cl)cc2Cl)CC1`, the Potency is reported as inconclusive: 17.8 µM [inhibitor, partial curve, poor fit]. In the case of `COC(=O)c1ccccc1NC(=O)CSc1nc(Nc2ccccc2)nc(N2CCOCC2)n1`, the Potency is reported as inconclusive: 17.8 µM [inhibitor, single point]. With `Cc1nn(-c2ccccc2)c(N2CCCC2)c1/C=N/NC(=O)c1cc2ccccc2cc1O` the Potency was inconclusive: 39.8 µM [inhibitor, partial curve, poor fit]. For `Cc1ccc(-c2nc(-c3ccccc3)no2)c(Cl)c1`, the Potency was inconclusive: 11.2 µM [inhibitor, single point]. With `O=C(Cn1c(=O)oc2ccccc21)NC(=O)NCc1ccccc1` the Potency was inconclusive: 6.31 µM [inhibitor, partial curve, poor fit]. With `CN1CCN(C(=O)CCN2C(=O)/C(=C\c3ccc(Cl)cc3Cl)SC2=S)CC1` the Potency was inconclusive: 35.5 µM [inhibitor, partial curve, poor fit]. For `Cn1c(NCC(O)c2ccccc2)nc2c1c(=O)n(Cc1ccc(Cl)c(Cl)c1)c(=O)n2C` (stereo not drawn), the Potency was inconclusive: 14.1 µM [inhibitor, partial curve, poor fit]. With `COc1cc(NC(=O)c2ccco2)c(OC)cc1NC(=O)CCC(=O)Nc1cc(C)cc(C)c1` the Potency was inconclusive: 17.8 µM [inhibitor, partial curve, poor fit]. For `N#CCCN(C(=O)Nc1ccc(Cl)c(Cl)c1)c1ccccc1`, the Potency was inconclusive: 20 µM [inhibitor, partial curve, poor fit]. In the case of `CCn1c(CN2CCC(C)CC2)nc2cc(NC(=O)COc3ccc(Cl)c(C)c3)ccc21`, the Potency is reported as inconclusive: 17.8 µM [inhibitor, partial curve, poor fit]. For `CCCCCc1c(CC)ncn1CCc1ccccc1OC`, the Potency was inconclusive: 39.8 µM [inhibitor, partial curve, poor fit]. In the case of `Cc1ccsc1/C=C1\CCc2ccccc2C1=O`, the Potency is reported as inconclusive: 14.1 µM [inhibitor, partial curve, poor fit]. For `O=C(c1ccc(Br)cc1)C(CN1CCOCC1)c1ccccc1` (stereo not drawn), the Potency was inconclusive: 17.8 µM [inhibitor, partial curve, poor fit]. With `Cc1ccc(S(=O)(=O)/N=C2\C=C(Nc3ccc(O)cc3)C(=O)c3ccccc32)cc1` the Potency was inconclusive: 10 µM [inhibitor, partial curve, poor fit]. For `Cn1c(SCC(=O)Nc2sccc2C(N)=O)nc2ccccc2c1=O`, the Potency was inconclusive: 12.6 µM [inhibitor, partial curve, poor fit]. With `CCCCCCCCCCC[N+](C)(C)CC/C=C1/c2ccccc2Sc2ccc(Cl)cc21` the “activity, negative = inhibition” value was inactive: -31.5%. With `Cc1ccc2nc3sc(C(=O)N4CCOCC4)c(N)c3cc2c1` the Potency was inconclusive: 10 µM [inhibitor, partial curve, poor fit]. For `O=C(CCl)Nc1cc(SCC(O)CO)cc([N+](=O)[O-])c1` (stereo not drawn), the Potency was inconclusive: 14.1 µM [inhibitor, partial curve, poor fit]. In the case of `COc1ccc(Sc2ccc(/C=C3\C(=O)NN(c4ccccc4)C3=O)o2)cc1`, the Potency is reported as inconclusive: 39.8 µM [inhibitor, partial curve, poor fit]. For `O=C(N=Nc1c(O)[nH]c2ccccc12)Nc1ccccc1`, the Potency was inconclusive: 15.8 µM [inhibitor, single point]. For `COc1cc(/C=N/NC(=Nc2ccc(C)cc2)c2nc3ccccc3s2)ccc1O`, the Potency was inconclusive: 17.8 µM [inhibitor, partial curve, poor fit]. In the case of `Cc1ccccc1Nc1sc(C(=O)c2ccccc2)c(N)c1S(C)(=O)=O`, the “activity, negative = inhibition” value is reported as inactive: -27.5%. With `Cc1ccc(S(=O)(=O)N(C)C)cc1NC(=O)COc1cccc(-n2cnnn2)c1` the “activity, negative = inhibition” value was inactive: -30.7%. With `COc1ccc(-c2cc3c(=O)n(CC(=O)Nc4cccc(Cl)c4)nc(C)n3n2)cc1` the “activity, negative = inhibition” value was inactive: -34.4%. With `COc1cc(-n2nc(C)c3c2OC(N)=C(C#N)C3c2ccccc2)c(Cl)c(Br)c1O` (stereo not drawn) the Potency was inconclusive: 22.4 µM [inhibitor, partial curve, poor fit]. With `CC1(C(=O)Nc2ccc(F)cc2F)CCN1C(=O)CCC1CCCC1` (stereo not drawn) the Potency was inconclusive: 2 µM [inhibitor, full curve]. In the case of `Cc1c(C(=O)c2ccc(F)cc2)c2ccccn2c1CCc1ccccn1`, the Potency is reported as inconclusive: 39.8 µM [inhibitor, partial curve, poor fit]. For `COc1ccc2oc(=O)c(C(=O)NCCc3c(C)[nH]c4ccc(C)cc34)cc2c1`, the “activity, negative = inhibition” value was inactive: -33.4%. With `COC(=O)C(O)(c1ccc(N(C)C(=O)OC(C)C)cc1)C(F)(F)F` (stereo not drawn) the Potency was inconclusive: 15.8 µM [inhibitor, partial curve]. In the case of `CCOC(=O)c1sc2nc(CC(=O)OC)nc(N3CCN(c4ccc(OC)cc4)CC3)c2c1C`, the “activity, negative = inhibition” value is reported as inactive: -48.5%. For `NC(=O)c1ccc(N2CCN(S(=O)(=O)c3cccs3)CC2)c([N+](=O)[O-])c1`, the Potency was inconclusive: 20 µM [inhibitor, partial curve, poor fit]. In the case of `O=C(N/N=C/c1ccc([N+](=O)[O-])o1)c1cc2ccccc2o1`, the Potency is reported as inconclusive: 3.16 µM [inhibitor, single point]. In the case of `CCN1CCN(c2cn[nH]c(=O)c2Cl)CC1`, the Potency is reported as inconclusive: 7.94 µM [inhibitor, full curve]. In the case of `CC(=O)c1cccc(N=c2scc(-c3ccc(S(=O)(=O)N4CCOCC4)cc3)n2CCO)c1`, the Potency is reported as inconclusive: 20 µM [inhibitor, partial curve, poor fit]. In the case of `C/C(=N\Nc1nc2ccccc2[nH]1)c1ccc(N2CCOCC2)cc1`, the Potency is reported as inconclusive: 22.4 µM [inhibitor, single point]. For `COC(=O)[C@@]1(Cc2ccc(OC)cc2)[C@@H]2C(=CC(=O)[C@H]2CC(=O)C(=O)N2CCCC2)CN1C(=O)c1ccccc1`, the Potency was inconclusive: 15.8 µM [inhibitor, partial curve, poor fit]. For `O=C(c1cc2c(s1)-c1ccccc1S(=O)(=O)C2)N1CCN(Cc2ccccc2)CC1`, the Potency was inconclusive: 20 µM [inhibitor, partial curve, poor fit]. For `Cc1cccc(OCC(=O)N2CCN(C(=O)CCC3CCCC3)CC2)c1`, the activity, negative = inhibition was inconclusive: -31.5% [inhibitor]. In the case of `CCOC(=O)CS(=O)(=O)c1nc(-c2ccccc2)cc(C(F)(F)F)n1`, the Potency is reported as inconclusive: 22.4 µM [inhibitor, partial curve, poor fit]. In the case of `CCOc1ccc(C2=Nn3c(nnc3-c3ccccc3OC)SC2)cc1`, the Potency is reported as inconclusive: 35.5 µM [inhibitor, partial curve, poor fit]. With `Cc1ccc(-n2nc(C)c(C(=O)Nc3cccc(C(=O)NC4CC4)c3)n2)c(C)c1` the Potency was inconclusive: 28.2 µM [inhibitor, single point]. With `CCCCn1c(SCc2ncc(-c3ccccc3)o2)nc2cc(S(N)(=O)=O)ccc21` the Potency was inconclusive: 28.2 µM [inhibitor, partial curve, poor fit].
